According to PubChem BioAssay AID2685 (National Center for Advancing Translational Sciences (NCATS), 2010):
Some of the results follow. Shown are side measurements of this screen, not its main read-out; they come without a call. Compounds called inactive in the main read-out are mostly missing here. Potencies come from curve fits of mixed quality, noted in brackets.

Assay: qHTS Assay for Lipid Storage Modulators in Drosophila S3 Cells;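 as to cell number change: cells counted by Cell Tracker Red CMTPX staining in the red channel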
Settings: BODIPY lipid droplet fluorescence, 18-24 h; for cell number change: measured here: cell count max response, cells fed with added oleic acid
Outline: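 Laser-scanning cytometry quantifies lipid droplet accumulation (500–530 nm total intensity; droplet/cell object ratio) in oleic acid-fed (400 uM added) Drosophila S3 cells treated with a concentration series. 20 uM Triacsin C defined 100% inhibition.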

[1] = measured here: lipid fluorescence (Fed channel) AC50, cells fed with added oleic acid
[2] = measured here: cell number channel AC50, cells fed with added oleic acid

| Compound | cell number change | AC50 [1] | AC50 [2] |
| --- | --- | --- | --- |
| COc1cc(C(=O)N/N=C/c2ccsc2C)cc(OC)c1OC | -10.7% | 6.51 µM [falling, full curve] |  |
| CCOc1ccc(S(=O)(=O)N2CCN(CC(O)COc3cccc([N+](=O)[O-])c3)CC2)cc1 (configuration not stated) | -25% |  |  |
| Cn1nc(-c2ccccc2)cc1NS(=O)(=O)c1ccccc1 | -5.32% | 0.184 µM [falling, full curve, poor fit] |  |
| O=C(NNc1cc(C(F)(F)F)nc2ccccc12)Nc1cccc(Cl)c1 | 2.08% |  |  |
| Cc1nc(-c2ccc(NC(=O)C3CCCCC3)cc2)cs1 | 15.2% |  |  |
| NS(=O)(=O)c1ccc2ccccc2c1 | 13.1% |  |  |
| O=C(CCc1ccccc1)Nc1nc2nc(-c3ccccc3)cc(=O)n2[nH]1 | -12.8% | 2.06 µM [rising, partial curve, poor fit] |  |
| CCOC(=O)N1CCN(C(=O)c2ccc([N+](=O)[O-])cc2Cl)CC1 |  | 5.8 µM [falling, full curve] |  |
| CCc1ccc2[nH]c(=O)c(CN(CCN3CCCC3)C(=O)NC3CCCCC3)cc2c1 |  | 0.651 µM [rising, single point] |  |
| O=C(OCC#CCSc1nc2ccccc2o1)c1ccco1 |  | 0.651 µM [rising, single point] | 0.92 µM [rising, full curve] |
| Cc1ccc(CN2CCNC(=O)C2CC(=O)NCC(F)(F)F)o1 (configuration not stated) | 3.82% | 3.66 µM [falling, single point] |  |
| CC1CCCC(N2CCN(C(=O)c3ccccc3F)CC2)C1 (configuration not stated) | -25.4% |  |  |
| Cn1c(O)c(N=NC(=O)CNC(=O)/C=C/c2ccccc2)c2ccccc21 | -12.4% |  |  |
| O=C(COc1ccccc1C(=O)Nc1ccccc1)c1ccc(Br)cc1 | 115% |  | 20.6 µM [rising, partial curve] |
| CC(=O)N1N=C(c2ccccc2)CC1c1ccc(F)cc1 (configuration not stated) | -10.6% | 0.731 µM [rising, full curve] |  |
| CCN(C(=O)C(C)Cl)c1ccccc1 (configuration not stated) | -32.2% |  | 6.51 µM [rising, single point] |
| COc1ccc(S(=O)(=O)Cc2ccc(C(=O)N3CCN(Cc4ccccc4)CC3)o2)cc1 |  |  | 0.13 µM [falling, full curve, poor fit] |
| CC(=O)OC12CC3CC(C1)C(=NO)C(C3)C2 | -48.7% | 1.16 µM [falling, full curve] | 1.46 µM [falling, full curve] |
| Cc1[nH]nc2c1C(c1ccc(O)cc1)C1=C(CC(C)(C)CC1=O)N2 (configuration not stated) | -22% | 3.66 µM [falling, partial curve, poor fit] |  |
| O=C1CCC(C(=O)Nc2cccc3ccccc23)N1 (configuration not stated) | 17.5% | 4.11 µM [falling, single point] |  |
| Cc1cccc2cc(C#N)c(NCCCn3ccnc3)nc12 |  | 5.8 µM [rising, full curve] | 2.31 µM [rising, single point] |
| CN(CCCNC(=O)CCCOc1cc(=O)n(C)c2ccccc12)Cc1ccccc1 | 23.7% |  | 0.116 µM [rising, full curve, poor fit] |

| Compound | cell number change | AC50 [1] | AC50 [2] |
| --- | --- | --- | --- |
| Cc1cccc(C(=O)N2CCC(=O)N(C(COCc3cccc(Cl)c3)Cc3ccccc3)CC2)c1 (configuration not stated) | -0.323% |  |  |
| Cc1cc(C(=O)N/N=C\c2cc(C(C)(C)C)c(O)c(C(C)(C)C)c2)n[nH]1 | -2.92% | 7.31 µM [falling, single point] |  |
| CC1CCCN(C(=O)CSc2cnc3ccccc3n2)C1 (configuration not stated) | 77.9% | 5.8 µM [rising, single point] | 7.31 µM [rising, partial curve] |
| C=CCc1c(C)nc(-c2ccccc2)nc1N/N=C/c1ccccc1 | -21.2% |  |  |
| Cc1cc(C)n2nc(SCC(N)=O)nc2n1 | -8.02% |  |  |
| CCCCCCCNC(=O)C1(CC2CC(c3ccc(Cl)cc3)=NO2)CCN(C(=O)c2ccccc2)CC1 (configuration not stated) | 37.2% |  | 7.31 µM [rising, partial curve, poor fit] |
| Cn1ccsc1=NC(=O)c1ccc(CS(C)(=O)=O)cc1 | 8.7% |  |  |
| COc1cc(NC(=O)CN2C(=O)NC(C)(c3ccc(OC(F)F)cc3)C2=O)cc(OC)c1OC (configuration not stated) | 14% | 1.84 µM [rising, partial curve] |  |
| CN1CCN(C(=O)CN(Cc2ccc(Cl)cc2)S(C)(=O)=O)CC1 | -81.9% | 23.1 µM [falling, single point] | 20.6 µM [falling, single point] |
| COc1cc(/C=C2/C(=O)N(c3cccc(Br)c3)N=C2C)cc(OC)c1O | -13.7% | 29.1 µM [falling, single point] |  |
| COc1ccc(-c2nc(CS(=O)CC(=O)NCc3ccc4c(c3)OCO4)c(C)o2)cc1 (configuration not stated) | 10.4% | 5.8 µM [rising, full curve] |  |
| Cc1c(C(=O)C(=O)NCC2CCCO2)c2ccccc2n1C (configuration not stated) | -34% |  | 0.00517 µM [falling, full curve, poor fit] |
| CCOC(=O)c1sc2nc(CC(=O)OC)nc(N3CCN(c4ccc(OC)cc4)CC3)c2c1C |  | 0.291 µM [rising, partial curve, poor fit] |  |
| CCN1C(=O)CSc2ccc(C(=O)NCc3ccco3)cc21 | 8.73% |  |  |
| CCCC(NC(=O)COc1cc2c(c3oc(=O)c(C)c(C)c13)CCC(C)(C)O2)C(=O)O (configuration not stated) | 16.3% | 29.1 µM [rising, single point] |  |
| Cc1ccc(NC(=O)NC(=O)CSc2nnnn2C)c(C)c1 | -5.81% | 3.66 µM [rising, single point] |  |
| NC1=NC[C@H](Cc2ccc(O)cc2)N1CCC12CC3CC(CC(C3)C1)C2 | 0.708% | 2.31 µM [rising, partial curve, poor fit] |  |
| COc1ccc(NC(=O)CN2C(=O)NC(CC(C)C)C2=O)cc1S(=O)(=O)N1CCOCC1 (configuration not stated) | 16% | 0.0366 µM [rising, single point] |  |
| N#Cc1ccc(C(=O)Nc2cccc3ncccc23)c(F)c1 | 11.4% | 5.8 µM [rising, partial curve] |  |
| Cc1cc(C)c2nc(N3CCCC(C(=O)N4CCN(c5ncccn5)CC4)C3)sc2c1 (configuration not stated) | 13% | 5.17 µM [rising, partial curve] |  |
| O=C(NCc1cccnc1)C1CC(c2cccc(Br)c2)=NO1 (configuration not stated) | 16.1% |  |  |
| O=S(=O)(c1ccc2oc3ccccc3c2c1)N1CCOCC1 |  | 18.4 µM [rising, partial curve] |  |

| Compound | cell number change | AC50 [1] | AC50 [2] |
| --- | --- | --- | --- |
| Cc1ccccc1Cn1nc(C)c(NC(=O)c2cc3nc(-c4ccco4)cc(C(F)(F)F)n3n2)c1C | -0.212% |  |  |
| CC(C)CN(C(=O)COC(=O)c1cccc2ccccc12)c1c(N)n(Cc2ccccc2)c(=O)[nH]c1=O | 4.08% | 23.1 µM [falling, single point] |  |
| Cc1cc(=O)oc2c(C)c3occc3cc12 | -5.28% |  |  |
| Cc1nn(-c2ccccc2)c2c1c(C)c(CCC(=O)N1CCOCC1)c(=O)n2C |  | 0.82 µM [rising, partial curve, poor fit] |  |
| CN(c1ccccc1)S(=O)(=O)c1cccc(NC(=O)Nc2ccc(Cl)cc2C#N)c1 | -29.8% |  | 0.13 µM [falling, full curve, poor fit] |
| O=C(CSc1nnc(NC(=O)c2c(F)cccc2F)s1)NC1CCCC1 |  | 0.116 µM [falling, full curve, poor fit] |  |
| Nn1c(Nc2ccc(Cl)cc2)nncc1=O | -3.28% | 0.82 µM [rising, full curve, poor fit] | 0.82 µM [rising, full curve, poor fit] |
| Cc1nc2cc(NCc3nc4ccccc4n3Cc3ccccc3)ccc2n1C | -37.7% | 13 µM [falling, partial curve] | 11.6 µM [falling, partial curve] |
| C=CCSc1nnc(NC(=O)c2c(CC)noc2C)s1 |  |  | 3.66 µM [rising, single point] |
| COc1ccc(C/C(N)=N/OC(=O)c2cccc([N+](=O)[O-])c2)cc1 | 24.1% | 10.3 µM [rising, partial curve] |  |
| CCOc1ccc(C(=O)NC2C(=O)N3C(C(=O)O)=C(COC(C)=O)CSC23)cc1OCC (configuration not stated) | -7.26% |  |  |
| O=C(NCc1ccco1)c1ccccc1F | -4.11% | 3.26 µM [falling, single point] | 0.231 µM [falling, full curve, poor fit] |
| COc1ncccc1C(=O)N1CCC(n2nccc2NC(=O)CC(C)C)CC1 | -20.2% | 4.61 µM [falling, partial curve] |  |
| Cc1ccccc1CN1CCN(CC(=O)NCc2ccccn2)C1=O | -40.1% | 23.1 µM [falling, single point] | 14.6 µM [falling, partial curve, poor fit] |
| COc1ccc(OC)c(-c2c(C#N)c(N)nc3c2c(=O)nc2sccn23)c1 | 16.3% | 4.11 µM [rising, single point] |  |
| CCOC(=O)N1CCN(CC(O)COCC2=CCC3CC2C3(C)C)CC1 (configuration not stated) | -31.5% | 23.1 µM [falling, partial curve, poor fit] | 1.3 µM [falling, partial curve, poor fit] |
| CCN(CC(=O)Nc1c(F)cccc1F)C(=O)Cc1c(C)nc2ccccc2c1C | -7.12% | 0.517 µM [rising, full curve] |  |
| O=C(NCc1cccnc1)C1CC2c3ccccc3C1c1ccccc12 (configuration not stated) | 18.1% |  |  |
| O=C(CSc1ccc(-c2ccc(F)cc2)nn1)NC1CCCCC1 | 7.83% | 1.03 µM [rising, full curve] |  |
| Cc1csc(OCC(=O)Nc2ccc(C)c(C)c2)n1 | 3.19% | 0.58 µM [rising, full curve, poor fit] |  |

Part of the list above in order of molar mass, rising.

| Compound | cell number change | AC50 [1] | AC50 [2] |
| --- | --- | --- | --- |
| COc1ncccc1C(=O)N1CCC(n2nccc2NC(=O)CC(C)C)CC1 | -20.2% | 4.61 µM [falling, partial curve] |  |
| CCN(CC(=O)Nc1c(F)cccc1F)C(=O)Cc1c(C)nc2ccccc2c1C | -7.12% | 0.517 µM [rising, full curve] |  |
| CC(C)CN(C(=O)COC(=O)c1cccc2ccccc12)c1c(N)n(Cc2ccccc2)c(=O)[nH]c1=O | 4.08% | 23.1 µM [falling, single point] |  |
